Measurements from article PMC6526285.
No constants are given. Whether binding was seen depends on the method and setting. In cells and extracts the contact can be indirect. Some binding calls cover weakened binding; strength is not graded here. Where a sequence is shown, tags or fusion partners need not be part of it.

Target: T1, FLAG-mouse FAM134B-2 (N-terminal-truncated isoform of FAM134B) (mouse) (UniProt Q8VE91)
T1 sequence: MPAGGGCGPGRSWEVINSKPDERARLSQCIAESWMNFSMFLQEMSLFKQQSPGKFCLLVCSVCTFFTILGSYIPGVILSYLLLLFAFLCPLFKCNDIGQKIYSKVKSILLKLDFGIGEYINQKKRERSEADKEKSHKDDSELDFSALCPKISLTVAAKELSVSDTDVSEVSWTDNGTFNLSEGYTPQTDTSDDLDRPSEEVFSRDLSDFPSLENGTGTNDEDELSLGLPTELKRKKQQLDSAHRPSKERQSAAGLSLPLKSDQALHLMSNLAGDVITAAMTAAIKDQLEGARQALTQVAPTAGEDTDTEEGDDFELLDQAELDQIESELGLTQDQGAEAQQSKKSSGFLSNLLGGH
Assay: co-IP; lysates (2 mg) of transfected HEK293T cells starved with EBSS for 6 h with bafilomycin A1 (1 uM); anti-DYKDDDDK G1 affinity resin overnight at 4 °C; buffer 150 mM NaCl, 1% Nonidet P-40, 50 mM Tris pH 8.0; immunoblot

binding: binds
B1: GFP-ApoCIII (apolipoprotein C-III) (protein, UniProt P33622 21-99)
chain: EEVEGSLLLGSVQGYMEQASKTVQDALSSVQESDIAVVARGWMDNHFRFLKGYWSKFTDKFTGFWDSNPEDQPTPAIES
